PubChem BioAssay AID1159578 | Peter MacCallum Cancer Centre, 2015
This is one part, drawn at random, of about 18,000 reagents tested. About 1,030 of them (5.7%) count as active. 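Inactive calls also include pools with fewer than 3300 nuclei, whose migration was not assessed.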 Raw values are not corrected between plates. Entries without a mark were called inactive. The numbers tell different reagents against one gene apart.

- Purpose: 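Knock-downs that alter how fast lymphatic endothelial cells migrate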 (primary screen)
- Cells: human lymphatic endothelial cells
- Reagent: siRNA pool against human genes, 40 nM
- Time to read-out: 48 h after transfection
- Measured: 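Cells stained with dye and imaged after a scratch; covered wound area and nuclei counted, duplicates averaged, migration set against mock wells and turned into a robust z-score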
- Scale: migration robust z-score: higher = faster migration into the scratch; migration relative to mock: higher = more scratch area covered than mock; nuclei per well: higher = more cells in the well
- Active means: 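Pools averaging fewer than 3300 nuclei are never called; remaining pools count as changed when migration robust z lies outside -2 to 2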
- Calls: active = migration changed; inactive = no migration change, or too few cells

Gene	reagent no.	migration robust z-score	migration class with cell-count check	migration relative to mock	nuclei per well, duplicate mean
RSPO4	1	-0.54	migration z between -2 and 2; enough cells	0.74	5500
DPYS	1	-0.43	migration z between -2 and 2; enough cells	0.77	5798
XYLT1	1	-0.99	migration z between -2 and 2; enough cells	0.63	4986
XKRX	1	0.88	migration z between -2 and 2; enough cells	1.11	5842
TBC1D24	1	-3.36 (active)	migration z below -2; enough cells	0.02	4896
TMBIM6	1	1.02	migration z between -2 and 2; enough cells	1.16	5292
HMGN5	1	0.16	migration z between -2 and 2; enough cells	0.93	5430
SNRPE	1	-1.92	migration z between -2 and 2; enough cells	0.38	4468
MALT1	1	-0.62	migration z between -2 and 2; enough cells	0.68	4458
MSR1	1	1.45	migration z between -2 and 2; enough cells	1.08	6078
NIPBL	1	0.1	migration z between -2 and 2; enough cells	0.91	5702
EFCAB12	1	-2.32 (active)	migration z below -2; enough cells	0.29	5820
GJC3	1	-2.35 (active)	migration z below -2; enough cells	0.28	4141
LINC01600	1	0.6	migration z between -2 and 2; enough cells	1.04	4426
ADAM22	1	1.17	migration z between -2 and 2; enough cells	1.03	6518
MAP3K12	1	-0.93	migration z between -2 and 2; enough cells	0.62	3978
OCRL	1	0.44	migration z between -2 and 2; enough cells	0.89	5426
VWA3B	1	0.76	migration z between -2 and 2; enough cells	1.08	5748
PKP1	1	0.18	migration z between -2 and 2; enough cells	0.93	5206
PROM2	1	-0.13	migration z between -2 and 2; enough cells	0.78	5302
PSMG2	1	-1.47	migration z between -2 and 2; enough cells	0.5	5556
METAP1D	1	1.35	migration z between -2 and 2; enough cells	1.06	5691
FURIN	1	0.24	migration z between -2 and 2; enough cells	0.85	4118
HTRA3	1	-0.02	migration z between -2 and 2; enough cells	0.8	4490
ASB11	1	-0.07	migration z between -2 and 2; enough cells	0.79	5417
SRSF5	1	-0.14	migration z between -2 and 2; enough cells	0.84	5618
LMBR1	1	-1.27	migration z between -2 and 2; enough cells	0.56	3961
CASTOR3P	1	0.13	migration z between -2 and 2; enough cells	0.92	4815
BCAR1	1	-1.64	migration z between -2 and 2; enough cells	0.46	5822
TMEM80	1	-0.28	migration z between -2 and 2; enough cells	0.82	5924
FAM53B	1	-0.15	migration z between -2 and 2; enough cells	0.84	5232
ATP6AP1	1	-0.96	migration z between -2 and 2; enough cells	0.62	6589
IFIT2	1	-0.81	migration z between -2 and 2; enough cells	0.68	5800
BNC1	1	0.37	migration z between -2 and 2; enough cells	0.98	7176
CLTB	1	-1.99	under 3300 nuclei; migration not judged	0.42	2638
SETD6	1	-0.56	migration z between -2 and 2; enough cells	0.74	6180
CD96	1	0.94	migration z between -2 and 2; enough cells	0.98	6192
MORC4	1	0.6	migration z between -2 and 2; enough cells	1.04	7260
HKDC1	1	-0.08	migration z between -2 and 2; enough cells	0.86	6208
CD248	1	-0.51	migration z between -2 and 2; enough cells	0.76	5807
MAMDC2	1	1.71	migration z between -2 and 2; enough cells	1.33	5832
SC5D	1	-0.26	migration z between -2 and 2; enough cells	0.82	5983
TMEM126A	1	-2.81 (active)	migration z below -2; enough cells	0.14	4490
HSFY2	1	-0.5	migration z between -2 and 2; enough cells	0.76	6544
RAD18	1	-0.34	migration z between -2 and 2; enough cells	0.74	6086
AK4	1	0.57	migration z between -2 and 2; enough cells	0.92	5790
AK4	2	1.47	migration z between -2 and 2; enough cells	1.27	6712
ACER2	1	-1.15	migration z between -2 and 2; enough cells	0.59	4953
OR5W2	1	-1.38	migration z between -2 and 2; enough cells	0.52	4716
ITIH2	1	-1.03	migration z between -2 and 2; enough cells	0.62	6035
ACOT7	1	0.8	migration z between -2 and 2; enough cells	0.96	5407
EOMES	1	-0.24	migration z between -2 and 2; enough cells	0.76	5995
SOCS1	1	-0.21	migration z between -2 and 2; enough cells	0.77	5367
GPR39	1	-1.97	migration z between -2 and 2; enough cells	0.42	5418
OR11A1	1	-1.06	migration z between -2 and 2; enough cells	0.62	6049
EBPL	1	0.8	migration z between -2 and 2; enough cells	0.96	6088
TMEM59	1	-2.12 (active)	migration z below -2; enough cells	0.34	6353

Called active, of those listed so far:
Gene	reagent no.	migration robust z-score	migration class with cell-count check	migration relative to mock	nuclei per well, duplicate mean
TBC1D24	1	-3.36 (active)	migration z below -2; enough cells	0.02	4896
EFCAB12	1	-2.32 (active)	migration z below -2; enough cells	0.29	5820
GJC3	1	-2.35 (active)	migration z below -2; enough cells	0.28	4141
TMEM126A	1	-2.81 (active)	migration z below -2; enough cells	0.14	4490
TMEM59	1	-2.12 (active)	migration z below -2; enough cells	0.34	6353
